Paper doi:10.1101/2023.12.18.571901

Amino acid sequences for entries named in this document (tags omitted).
UniProt Q86U70: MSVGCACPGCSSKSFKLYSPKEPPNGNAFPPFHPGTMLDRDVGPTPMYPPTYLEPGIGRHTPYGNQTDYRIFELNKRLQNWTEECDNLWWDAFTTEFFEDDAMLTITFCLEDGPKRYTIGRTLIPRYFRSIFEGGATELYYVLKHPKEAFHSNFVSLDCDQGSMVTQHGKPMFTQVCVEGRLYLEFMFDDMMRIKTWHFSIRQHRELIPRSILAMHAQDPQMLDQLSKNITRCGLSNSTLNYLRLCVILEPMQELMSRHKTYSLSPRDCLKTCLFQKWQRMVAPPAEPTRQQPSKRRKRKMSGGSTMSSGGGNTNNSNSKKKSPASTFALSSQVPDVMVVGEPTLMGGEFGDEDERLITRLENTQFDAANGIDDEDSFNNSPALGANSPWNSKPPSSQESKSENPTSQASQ
UniProt P28370: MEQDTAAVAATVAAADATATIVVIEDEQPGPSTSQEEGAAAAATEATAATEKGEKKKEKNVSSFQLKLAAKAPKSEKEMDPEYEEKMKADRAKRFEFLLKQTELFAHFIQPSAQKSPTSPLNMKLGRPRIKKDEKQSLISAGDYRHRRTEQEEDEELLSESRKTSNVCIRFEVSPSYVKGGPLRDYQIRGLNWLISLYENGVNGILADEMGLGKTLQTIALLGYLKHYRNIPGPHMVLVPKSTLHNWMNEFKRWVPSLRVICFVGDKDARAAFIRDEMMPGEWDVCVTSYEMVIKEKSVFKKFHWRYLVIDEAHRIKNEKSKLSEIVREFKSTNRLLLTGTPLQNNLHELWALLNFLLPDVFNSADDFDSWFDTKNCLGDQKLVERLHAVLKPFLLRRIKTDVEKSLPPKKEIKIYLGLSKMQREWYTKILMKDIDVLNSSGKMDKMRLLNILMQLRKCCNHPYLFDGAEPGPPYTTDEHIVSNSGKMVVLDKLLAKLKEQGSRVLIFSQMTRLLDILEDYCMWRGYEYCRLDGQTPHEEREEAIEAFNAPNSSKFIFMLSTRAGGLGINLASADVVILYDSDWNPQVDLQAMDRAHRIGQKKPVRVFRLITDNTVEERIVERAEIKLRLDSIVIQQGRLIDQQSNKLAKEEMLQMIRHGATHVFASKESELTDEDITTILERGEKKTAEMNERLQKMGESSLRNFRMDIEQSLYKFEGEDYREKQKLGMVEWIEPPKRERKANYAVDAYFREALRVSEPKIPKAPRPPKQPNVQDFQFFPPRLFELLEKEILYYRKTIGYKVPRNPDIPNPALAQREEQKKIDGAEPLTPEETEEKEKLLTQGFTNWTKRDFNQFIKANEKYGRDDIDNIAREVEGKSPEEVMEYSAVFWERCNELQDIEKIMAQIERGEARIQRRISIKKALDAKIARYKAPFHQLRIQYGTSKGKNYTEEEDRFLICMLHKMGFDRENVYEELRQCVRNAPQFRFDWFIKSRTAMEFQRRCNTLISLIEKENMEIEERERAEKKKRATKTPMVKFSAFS
UniProt Q92922: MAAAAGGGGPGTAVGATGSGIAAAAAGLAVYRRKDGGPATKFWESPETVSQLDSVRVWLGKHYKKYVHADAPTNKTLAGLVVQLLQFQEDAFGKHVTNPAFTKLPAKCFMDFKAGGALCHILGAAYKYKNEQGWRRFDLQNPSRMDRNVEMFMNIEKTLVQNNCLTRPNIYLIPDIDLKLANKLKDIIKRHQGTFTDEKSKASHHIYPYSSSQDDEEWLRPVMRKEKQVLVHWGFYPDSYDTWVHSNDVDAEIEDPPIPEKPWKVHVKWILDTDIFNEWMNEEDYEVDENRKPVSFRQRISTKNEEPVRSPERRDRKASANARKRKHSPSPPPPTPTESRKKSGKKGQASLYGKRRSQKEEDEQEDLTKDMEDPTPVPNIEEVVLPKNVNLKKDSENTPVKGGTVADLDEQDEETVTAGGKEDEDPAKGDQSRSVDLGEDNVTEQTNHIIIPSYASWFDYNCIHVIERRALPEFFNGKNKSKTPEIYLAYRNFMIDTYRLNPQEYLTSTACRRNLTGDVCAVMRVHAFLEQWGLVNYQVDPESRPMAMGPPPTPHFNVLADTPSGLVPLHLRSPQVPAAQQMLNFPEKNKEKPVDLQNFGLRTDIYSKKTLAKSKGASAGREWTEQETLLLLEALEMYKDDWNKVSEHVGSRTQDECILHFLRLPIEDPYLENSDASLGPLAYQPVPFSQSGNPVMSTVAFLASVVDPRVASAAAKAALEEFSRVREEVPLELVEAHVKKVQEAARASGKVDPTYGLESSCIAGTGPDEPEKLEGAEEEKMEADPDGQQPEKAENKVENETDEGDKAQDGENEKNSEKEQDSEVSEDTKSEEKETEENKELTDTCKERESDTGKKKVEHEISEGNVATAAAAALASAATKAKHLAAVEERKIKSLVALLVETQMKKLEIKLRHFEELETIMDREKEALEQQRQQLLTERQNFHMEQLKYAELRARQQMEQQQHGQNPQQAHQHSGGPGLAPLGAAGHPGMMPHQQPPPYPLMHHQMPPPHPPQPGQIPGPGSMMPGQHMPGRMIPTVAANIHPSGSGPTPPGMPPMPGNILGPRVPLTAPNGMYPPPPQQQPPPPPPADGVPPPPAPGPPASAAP
UniProt Q969G3: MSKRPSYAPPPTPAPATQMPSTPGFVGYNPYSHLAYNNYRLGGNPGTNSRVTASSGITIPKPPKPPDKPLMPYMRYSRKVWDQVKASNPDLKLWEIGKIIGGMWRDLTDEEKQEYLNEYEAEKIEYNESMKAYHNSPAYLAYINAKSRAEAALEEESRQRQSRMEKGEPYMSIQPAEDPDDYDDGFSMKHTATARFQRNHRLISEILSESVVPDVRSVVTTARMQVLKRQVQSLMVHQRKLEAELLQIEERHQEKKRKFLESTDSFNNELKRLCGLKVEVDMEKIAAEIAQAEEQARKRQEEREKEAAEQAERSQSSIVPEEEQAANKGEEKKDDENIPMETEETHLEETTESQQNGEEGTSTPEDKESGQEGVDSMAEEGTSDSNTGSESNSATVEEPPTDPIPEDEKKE
UniProt Q04725: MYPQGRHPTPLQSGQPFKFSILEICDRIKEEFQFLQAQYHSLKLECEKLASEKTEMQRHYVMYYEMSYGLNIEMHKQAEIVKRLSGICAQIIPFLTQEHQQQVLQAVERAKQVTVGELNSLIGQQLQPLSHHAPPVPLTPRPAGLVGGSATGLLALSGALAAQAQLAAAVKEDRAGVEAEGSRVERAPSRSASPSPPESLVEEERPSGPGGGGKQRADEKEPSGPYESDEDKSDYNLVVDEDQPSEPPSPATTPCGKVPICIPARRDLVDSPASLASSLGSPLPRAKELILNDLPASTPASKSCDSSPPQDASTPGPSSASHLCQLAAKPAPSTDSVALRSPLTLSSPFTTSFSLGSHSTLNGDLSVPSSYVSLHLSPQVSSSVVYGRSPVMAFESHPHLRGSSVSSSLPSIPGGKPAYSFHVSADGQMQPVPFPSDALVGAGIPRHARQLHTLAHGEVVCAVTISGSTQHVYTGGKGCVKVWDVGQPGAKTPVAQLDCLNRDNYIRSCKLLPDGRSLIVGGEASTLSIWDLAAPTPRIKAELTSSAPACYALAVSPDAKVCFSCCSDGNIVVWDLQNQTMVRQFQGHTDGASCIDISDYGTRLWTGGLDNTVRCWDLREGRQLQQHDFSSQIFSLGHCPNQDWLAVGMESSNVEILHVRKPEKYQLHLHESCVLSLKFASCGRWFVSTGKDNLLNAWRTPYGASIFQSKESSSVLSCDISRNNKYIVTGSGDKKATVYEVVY
UniProt Q9UHV7: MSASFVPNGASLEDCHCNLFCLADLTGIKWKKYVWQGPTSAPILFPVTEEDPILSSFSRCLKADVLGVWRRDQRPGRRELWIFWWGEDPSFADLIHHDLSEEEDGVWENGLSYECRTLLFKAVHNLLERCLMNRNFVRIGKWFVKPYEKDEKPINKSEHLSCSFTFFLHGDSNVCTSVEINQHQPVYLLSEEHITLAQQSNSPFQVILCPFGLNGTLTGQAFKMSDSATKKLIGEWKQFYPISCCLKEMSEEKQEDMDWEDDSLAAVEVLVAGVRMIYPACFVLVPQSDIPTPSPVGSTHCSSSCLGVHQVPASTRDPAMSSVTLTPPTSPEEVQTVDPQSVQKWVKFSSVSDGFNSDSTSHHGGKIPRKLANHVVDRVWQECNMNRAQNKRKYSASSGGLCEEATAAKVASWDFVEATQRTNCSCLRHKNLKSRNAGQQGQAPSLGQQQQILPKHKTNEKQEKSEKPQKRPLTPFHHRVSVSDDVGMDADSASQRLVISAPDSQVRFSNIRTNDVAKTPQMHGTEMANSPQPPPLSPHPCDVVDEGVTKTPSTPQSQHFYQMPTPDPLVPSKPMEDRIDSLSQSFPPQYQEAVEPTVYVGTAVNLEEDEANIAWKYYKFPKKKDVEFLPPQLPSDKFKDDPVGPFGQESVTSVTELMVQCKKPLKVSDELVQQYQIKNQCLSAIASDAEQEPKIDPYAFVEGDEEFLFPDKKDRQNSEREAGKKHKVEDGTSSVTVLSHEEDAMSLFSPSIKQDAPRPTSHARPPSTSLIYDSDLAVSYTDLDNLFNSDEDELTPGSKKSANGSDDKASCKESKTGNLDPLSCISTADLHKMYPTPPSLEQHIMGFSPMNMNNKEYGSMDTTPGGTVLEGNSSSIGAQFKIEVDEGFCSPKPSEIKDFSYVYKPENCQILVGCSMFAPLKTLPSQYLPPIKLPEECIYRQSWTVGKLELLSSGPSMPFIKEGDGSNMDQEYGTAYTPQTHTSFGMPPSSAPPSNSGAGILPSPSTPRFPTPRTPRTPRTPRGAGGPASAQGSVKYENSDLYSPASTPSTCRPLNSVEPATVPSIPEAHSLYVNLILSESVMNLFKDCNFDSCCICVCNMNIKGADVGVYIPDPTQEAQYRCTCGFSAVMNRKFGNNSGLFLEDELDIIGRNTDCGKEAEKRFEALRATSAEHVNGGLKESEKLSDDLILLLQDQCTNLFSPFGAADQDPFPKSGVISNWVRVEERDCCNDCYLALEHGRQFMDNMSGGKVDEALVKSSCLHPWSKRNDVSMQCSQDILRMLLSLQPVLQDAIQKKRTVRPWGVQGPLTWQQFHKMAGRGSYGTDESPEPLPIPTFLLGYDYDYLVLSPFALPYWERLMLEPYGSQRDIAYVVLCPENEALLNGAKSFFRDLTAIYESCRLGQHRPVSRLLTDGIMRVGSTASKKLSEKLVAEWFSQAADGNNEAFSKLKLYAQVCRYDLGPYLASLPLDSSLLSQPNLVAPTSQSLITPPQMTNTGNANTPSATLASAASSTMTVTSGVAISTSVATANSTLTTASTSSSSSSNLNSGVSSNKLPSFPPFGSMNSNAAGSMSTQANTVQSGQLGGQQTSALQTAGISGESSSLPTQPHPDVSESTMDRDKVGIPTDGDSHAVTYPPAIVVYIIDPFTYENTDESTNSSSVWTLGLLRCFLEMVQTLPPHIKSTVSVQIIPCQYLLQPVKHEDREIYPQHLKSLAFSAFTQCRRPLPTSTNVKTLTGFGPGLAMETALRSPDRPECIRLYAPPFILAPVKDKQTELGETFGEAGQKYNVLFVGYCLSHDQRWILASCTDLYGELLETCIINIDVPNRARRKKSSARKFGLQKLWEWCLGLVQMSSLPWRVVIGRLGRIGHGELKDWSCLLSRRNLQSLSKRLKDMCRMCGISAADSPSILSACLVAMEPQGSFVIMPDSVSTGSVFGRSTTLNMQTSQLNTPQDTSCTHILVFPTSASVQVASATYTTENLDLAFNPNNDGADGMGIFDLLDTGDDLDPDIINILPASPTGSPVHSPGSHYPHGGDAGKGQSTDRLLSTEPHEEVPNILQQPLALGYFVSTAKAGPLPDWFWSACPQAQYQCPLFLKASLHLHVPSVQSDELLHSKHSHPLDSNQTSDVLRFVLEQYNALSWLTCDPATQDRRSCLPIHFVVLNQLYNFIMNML
UniProt P36402: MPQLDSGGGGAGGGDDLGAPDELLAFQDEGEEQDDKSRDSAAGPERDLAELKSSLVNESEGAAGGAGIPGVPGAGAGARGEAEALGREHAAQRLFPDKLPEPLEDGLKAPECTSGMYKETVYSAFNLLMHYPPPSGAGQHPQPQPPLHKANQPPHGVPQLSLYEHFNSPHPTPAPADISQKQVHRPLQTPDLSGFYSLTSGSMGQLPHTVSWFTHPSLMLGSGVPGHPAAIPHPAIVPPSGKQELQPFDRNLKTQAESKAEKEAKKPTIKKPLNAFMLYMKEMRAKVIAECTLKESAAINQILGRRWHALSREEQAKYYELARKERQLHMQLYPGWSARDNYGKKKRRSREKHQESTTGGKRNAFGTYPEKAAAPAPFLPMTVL

molecular target: TBX3-ΔNPF-BirA (UniProt O15119); experiment: proximity labelling

Row | Substance | binding
1 | LDB1 (LIM domain-binding protein) (from UniProt Q86U70 1-411) | no binding

molecular target: T1, TBX3-WT-BirA (UniProt O15119); experiment: proximity labelling
T1 sequence: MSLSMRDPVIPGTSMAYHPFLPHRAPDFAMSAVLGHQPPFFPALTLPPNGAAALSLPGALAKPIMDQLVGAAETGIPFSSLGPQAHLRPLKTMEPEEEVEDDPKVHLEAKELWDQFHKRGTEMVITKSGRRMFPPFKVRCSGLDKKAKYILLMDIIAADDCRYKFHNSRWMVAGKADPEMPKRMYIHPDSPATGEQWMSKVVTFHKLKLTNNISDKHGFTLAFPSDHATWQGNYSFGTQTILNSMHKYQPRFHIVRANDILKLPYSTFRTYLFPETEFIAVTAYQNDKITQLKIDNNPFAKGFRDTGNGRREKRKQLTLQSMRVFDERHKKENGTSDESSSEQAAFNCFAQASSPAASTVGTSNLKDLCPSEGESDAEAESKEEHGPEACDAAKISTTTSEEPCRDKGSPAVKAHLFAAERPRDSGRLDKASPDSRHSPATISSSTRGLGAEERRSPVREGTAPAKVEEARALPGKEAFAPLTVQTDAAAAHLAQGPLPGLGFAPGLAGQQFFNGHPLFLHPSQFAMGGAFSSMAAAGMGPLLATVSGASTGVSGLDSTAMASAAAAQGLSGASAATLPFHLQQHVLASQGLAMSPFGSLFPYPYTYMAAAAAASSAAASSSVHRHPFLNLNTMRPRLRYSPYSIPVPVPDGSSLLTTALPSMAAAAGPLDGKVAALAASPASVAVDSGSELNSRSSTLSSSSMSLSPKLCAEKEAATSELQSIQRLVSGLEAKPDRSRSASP

Row | Substance | binding
2 | LDB1 (LIM domain-binding protein) (from UniProt Q86U70 1-411) | binds
3 | SMARCA1 (from UniProt P28370 1-1042) | binds
4 | SMARCC1 (from UniProt Q92922 1-1105) | binds
5 | SMARCE1 (from UniProt Q969G3 1-411) | binds
6 | TLE2 (from UniProt Q04725 1-743) | binds

Now from value to substance:

Row | binding | Substance
7 | binds | JUN/FOS (human (endogenous in HEK293T)) (complex)
8 | binds | MED13 (from UniProt Q9UHV7 1-2174)
9 | binds | TCF7 (from UniProt P36402 1-384)

These are yes or no findings as the source states them, for the method shown. In cells and extracts the contact can be indirect. A yes stands for co-enrichment or nearness to the bait. Other partners may have been found. For part of these data: No binding means not detected with the bait.
